The supplement of paper PMC12823440, “Inhibitors supercharge kinase turnover through native proteolytic circuits” (Nature, 2025)
Where a name gives a salt, the structure may show the parent alone. This is one part of the list. Hit calls seldom repeat between salt and free forms of one compound.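 Kinases were expressed as nanoluciferase fusions in K562 cells and luminescence was read every 4 h between 2 and 18 h as percent of control, DMSO set to 100% and a positive control to 0%. A time point counts as decreased when the signal drops significantly (2 sigma). The hit call is the authors' own, does not follow from the count of time points alone, and its rule is not shown.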

Protein sequences, listed by entry. Tags and fused reporters are not part of them. Lines headed by an entry give the natural chain unless they say otherwise; changes in a name come on top.
UniProt P07949, whole entry, looked up: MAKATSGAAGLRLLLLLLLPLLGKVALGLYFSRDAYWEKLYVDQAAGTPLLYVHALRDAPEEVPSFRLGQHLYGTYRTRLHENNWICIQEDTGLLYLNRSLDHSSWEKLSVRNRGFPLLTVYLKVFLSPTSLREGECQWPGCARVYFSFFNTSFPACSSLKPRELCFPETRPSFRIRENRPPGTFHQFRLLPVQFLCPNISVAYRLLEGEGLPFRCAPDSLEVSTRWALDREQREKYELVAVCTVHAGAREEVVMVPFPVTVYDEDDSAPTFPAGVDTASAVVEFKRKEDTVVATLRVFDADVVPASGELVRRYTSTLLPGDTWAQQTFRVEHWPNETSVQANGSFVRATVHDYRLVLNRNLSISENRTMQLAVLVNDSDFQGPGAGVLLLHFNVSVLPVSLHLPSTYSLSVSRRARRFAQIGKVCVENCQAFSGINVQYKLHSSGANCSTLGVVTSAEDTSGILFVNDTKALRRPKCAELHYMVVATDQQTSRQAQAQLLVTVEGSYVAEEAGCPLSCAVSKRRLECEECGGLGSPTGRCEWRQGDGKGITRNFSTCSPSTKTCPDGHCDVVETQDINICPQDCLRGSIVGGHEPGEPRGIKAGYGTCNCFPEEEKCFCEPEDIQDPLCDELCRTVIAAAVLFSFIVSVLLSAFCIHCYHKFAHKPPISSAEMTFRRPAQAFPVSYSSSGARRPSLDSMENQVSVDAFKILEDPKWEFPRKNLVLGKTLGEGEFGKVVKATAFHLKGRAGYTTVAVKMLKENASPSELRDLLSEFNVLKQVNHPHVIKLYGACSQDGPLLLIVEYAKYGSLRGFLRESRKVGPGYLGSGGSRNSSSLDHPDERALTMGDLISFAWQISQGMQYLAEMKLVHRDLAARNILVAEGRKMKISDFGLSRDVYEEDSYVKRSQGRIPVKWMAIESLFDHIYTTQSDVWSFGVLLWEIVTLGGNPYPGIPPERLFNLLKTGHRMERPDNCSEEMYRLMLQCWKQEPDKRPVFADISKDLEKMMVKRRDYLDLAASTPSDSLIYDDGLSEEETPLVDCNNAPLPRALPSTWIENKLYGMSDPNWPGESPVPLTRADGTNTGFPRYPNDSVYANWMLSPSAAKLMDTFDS
UniProt P07949, whole entry M918T, looked up: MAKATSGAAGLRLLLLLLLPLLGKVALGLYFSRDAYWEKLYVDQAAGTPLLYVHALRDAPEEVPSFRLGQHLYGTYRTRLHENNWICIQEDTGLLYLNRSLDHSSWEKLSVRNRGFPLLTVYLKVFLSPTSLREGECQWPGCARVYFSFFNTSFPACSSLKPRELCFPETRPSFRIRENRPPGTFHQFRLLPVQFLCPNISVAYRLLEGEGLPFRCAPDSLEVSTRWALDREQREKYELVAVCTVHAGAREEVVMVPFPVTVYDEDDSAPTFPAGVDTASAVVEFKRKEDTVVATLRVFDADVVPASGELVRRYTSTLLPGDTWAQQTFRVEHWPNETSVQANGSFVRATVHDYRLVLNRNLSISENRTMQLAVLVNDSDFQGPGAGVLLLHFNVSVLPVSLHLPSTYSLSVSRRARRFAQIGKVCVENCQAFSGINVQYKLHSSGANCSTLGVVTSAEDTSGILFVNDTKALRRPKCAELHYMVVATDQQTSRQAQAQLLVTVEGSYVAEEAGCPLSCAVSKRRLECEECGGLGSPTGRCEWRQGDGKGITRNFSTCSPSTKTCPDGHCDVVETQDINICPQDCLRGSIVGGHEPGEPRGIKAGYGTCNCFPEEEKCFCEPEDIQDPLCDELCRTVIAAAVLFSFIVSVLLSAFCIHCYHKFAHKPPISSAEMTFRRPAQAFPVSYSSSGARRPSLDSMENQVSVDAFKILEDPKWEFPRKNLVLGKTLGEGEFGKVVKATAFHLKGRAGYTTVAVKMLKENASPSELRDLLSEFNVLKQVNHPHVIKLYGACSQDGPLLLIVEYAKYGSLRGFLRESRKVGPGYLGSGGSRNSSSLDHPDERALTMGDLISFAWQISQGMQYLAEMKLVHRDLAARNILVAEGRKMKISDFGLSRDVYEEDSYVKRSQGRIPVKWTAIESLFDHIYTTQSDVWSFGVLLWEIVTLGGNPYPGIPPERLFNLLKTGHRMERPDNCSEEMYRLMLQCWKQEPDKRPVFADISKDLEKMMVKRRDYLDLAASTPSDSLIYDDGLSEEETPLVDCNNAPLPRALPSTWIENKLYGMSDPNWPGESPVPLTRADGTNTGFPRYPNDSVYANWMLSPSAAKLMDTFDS
UniProt Q9BRS2: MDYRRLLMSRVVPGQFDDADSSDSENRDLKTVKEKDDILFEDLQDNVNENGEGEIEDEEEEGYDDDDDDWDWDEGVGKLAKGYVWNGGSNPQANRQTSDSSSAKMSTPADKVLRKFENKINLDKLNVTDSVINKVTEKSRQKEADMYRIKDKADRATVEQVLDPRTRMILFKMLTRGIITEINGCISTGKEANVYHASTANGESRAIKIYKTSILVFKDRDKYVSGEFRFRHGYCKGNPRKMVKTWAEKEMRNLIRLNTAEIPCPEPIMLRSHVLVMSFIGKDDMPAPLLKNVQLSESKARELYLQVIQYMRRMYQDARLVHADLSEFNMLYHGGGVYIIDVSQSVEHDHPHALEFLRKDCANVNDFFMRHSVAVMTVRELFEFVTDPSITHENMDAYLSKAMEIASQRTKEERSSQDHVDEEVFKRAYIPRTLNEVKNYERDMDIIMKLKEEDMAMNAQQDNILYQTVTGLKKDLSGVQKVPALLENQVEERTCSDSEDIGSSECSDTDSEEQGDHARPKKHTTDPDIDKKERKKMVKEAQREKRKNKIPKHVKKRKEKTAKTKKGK
UniProt Q13546: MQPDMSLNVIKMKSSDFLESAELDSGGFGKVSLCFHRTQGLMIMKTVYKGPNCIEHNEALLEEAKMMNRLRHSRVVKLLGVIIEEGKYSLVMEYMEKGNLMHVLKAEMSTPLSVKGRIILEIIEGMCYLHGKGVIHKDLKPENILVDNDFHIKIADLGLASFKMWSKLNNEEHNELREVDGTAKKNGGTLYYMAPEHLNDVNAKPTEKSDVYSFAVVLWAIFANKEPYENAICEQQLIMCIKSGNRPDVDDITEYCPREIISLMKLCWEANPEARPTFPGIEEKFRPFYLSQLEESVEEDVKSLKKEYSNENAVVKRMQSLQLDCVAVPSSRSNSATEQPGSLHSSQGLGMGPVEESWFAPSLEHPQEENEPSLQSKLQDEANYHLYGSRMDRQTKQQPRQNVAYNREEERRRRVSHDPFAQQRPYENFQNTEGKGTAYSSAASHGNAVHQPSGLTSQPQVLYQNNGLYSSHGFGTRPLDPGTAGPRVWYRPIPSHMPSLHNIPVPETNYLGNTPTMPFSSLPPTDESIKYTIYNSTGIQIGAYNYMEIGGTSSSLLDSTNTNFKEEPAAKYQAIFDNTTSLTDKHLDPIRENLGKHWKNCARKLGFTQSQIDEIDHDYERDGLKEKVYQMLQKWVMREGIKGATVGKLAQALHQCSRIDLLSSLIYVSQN
UniProt Q01974, whole entry: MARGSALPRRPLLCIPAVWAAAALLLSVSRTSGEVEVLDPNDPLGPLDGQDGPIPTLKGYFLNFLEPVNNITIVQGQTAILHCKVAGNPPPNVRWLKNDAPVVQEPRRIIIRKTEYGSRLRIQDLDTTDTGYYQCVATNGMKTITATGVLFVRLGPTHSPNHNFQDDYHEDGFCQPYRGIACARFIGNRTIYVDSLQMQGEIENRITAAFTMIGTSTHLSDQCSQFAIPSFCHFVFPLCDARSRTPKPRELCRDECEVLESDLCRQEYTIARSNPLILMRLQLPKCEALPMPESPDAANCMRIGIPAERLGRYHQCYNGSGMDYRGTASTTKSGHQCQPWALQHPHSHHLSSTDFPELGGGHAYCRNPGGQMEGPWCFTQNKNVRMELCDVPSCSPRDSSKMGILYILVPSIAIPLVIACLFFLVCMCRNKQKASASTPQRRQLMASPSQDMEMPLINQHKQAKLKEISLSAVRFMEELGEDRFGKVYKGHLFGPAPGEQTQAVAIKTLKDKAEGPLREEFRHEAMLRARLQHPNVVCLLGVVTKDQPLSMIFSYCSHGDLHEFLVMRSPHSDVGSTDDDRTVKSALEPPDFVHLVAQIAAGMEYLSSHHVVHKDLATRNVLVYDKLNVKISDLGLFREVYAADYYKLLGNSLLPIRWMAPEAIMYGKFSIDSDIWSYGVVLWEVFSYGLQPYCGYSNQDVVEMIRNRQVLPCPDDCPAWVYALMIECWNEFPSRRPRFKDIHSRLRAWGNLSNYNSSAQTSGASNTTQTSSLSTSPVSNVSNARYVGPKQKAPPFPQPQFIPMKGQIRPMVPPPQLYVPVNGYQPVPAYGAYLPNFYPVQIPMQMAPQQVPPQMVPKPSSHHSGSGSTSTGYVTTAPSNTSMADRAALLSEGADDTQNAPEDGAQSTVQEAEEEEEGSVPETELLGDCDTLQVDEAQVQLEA
UniProt Q15418, whole entry: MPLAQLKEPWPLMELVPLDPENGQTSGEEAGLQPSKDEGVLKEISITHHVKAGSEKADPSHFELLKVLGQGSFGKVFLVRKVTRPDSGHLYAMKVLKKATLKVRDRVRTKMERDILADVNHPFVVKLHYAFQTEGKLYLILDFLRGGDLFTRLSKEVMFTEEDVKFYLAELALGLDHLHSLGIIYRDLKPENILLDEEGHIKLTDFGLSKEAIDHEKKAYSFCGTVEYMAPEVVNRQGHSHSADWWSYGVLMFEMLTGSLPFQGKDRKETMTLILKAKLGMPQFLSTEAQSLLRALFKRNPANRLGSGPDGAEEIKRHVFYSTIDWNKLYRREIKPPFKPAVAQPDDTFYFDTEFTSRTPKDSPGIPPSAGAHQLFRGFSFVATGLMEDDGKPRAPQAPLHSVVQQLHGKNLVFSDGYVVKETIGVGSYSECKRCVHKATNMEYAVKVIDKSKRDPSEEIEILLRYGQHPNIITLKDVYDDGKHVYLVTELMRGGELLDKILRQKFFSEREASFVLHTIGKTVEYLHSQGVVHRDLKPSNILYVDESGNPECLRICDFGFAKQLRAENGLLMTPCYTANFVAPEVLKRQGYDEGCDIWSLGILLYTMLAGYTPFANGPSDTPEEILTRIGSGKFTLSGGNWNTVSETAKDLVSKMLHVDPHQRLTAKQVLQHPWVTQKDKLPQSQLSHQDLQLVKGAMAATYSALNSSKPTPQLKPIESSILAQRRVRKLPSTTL
UniProt Q9NYA1, whole entry: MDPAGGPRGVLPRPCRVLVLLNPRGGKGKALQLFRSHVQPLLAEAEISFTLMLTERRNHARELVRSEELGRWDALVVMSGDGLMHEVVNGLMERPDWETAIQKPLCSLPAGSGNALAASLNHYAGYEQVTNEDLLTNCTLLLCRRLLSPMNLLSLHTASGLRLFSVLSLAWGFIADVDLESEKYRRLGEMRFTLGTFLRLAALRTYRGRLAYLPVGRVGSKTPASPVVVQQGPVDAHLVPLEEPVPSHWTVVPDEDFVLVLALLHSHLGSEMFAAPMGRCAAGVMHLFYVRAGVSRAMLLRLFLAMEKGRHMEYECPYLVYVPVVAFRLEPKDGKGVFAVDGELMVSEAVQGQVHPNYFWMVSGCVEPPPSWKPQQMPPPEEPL
UniProt Q9Y6E0: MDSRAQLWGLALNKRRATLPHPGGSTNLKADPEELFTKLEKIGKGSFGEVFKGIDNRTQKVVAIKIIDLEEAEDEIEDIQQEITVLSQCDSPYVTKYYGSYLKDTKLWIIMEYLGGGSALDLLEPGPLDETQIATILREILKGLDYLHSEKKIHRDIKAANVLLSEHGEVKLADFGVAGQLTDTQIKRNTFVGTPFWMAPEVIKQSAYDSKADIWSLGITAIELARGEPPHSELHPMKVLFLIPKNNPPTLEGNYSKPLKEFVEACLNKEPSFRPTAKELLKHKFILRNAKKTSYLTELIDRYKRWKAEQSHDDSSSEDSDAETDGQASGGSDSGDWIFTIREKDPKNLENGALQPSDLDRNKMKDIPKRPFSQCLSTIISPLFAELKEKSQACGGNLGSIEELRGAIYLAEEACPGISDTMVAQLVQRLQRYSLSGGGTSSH

Experiments:
Assay in all cases: kinase-Nluc reporter destabilization hit call (1 = scored as downregulated) (binary); higher = compound decreases kinase abundance
Conditions in all cases: K562; 2-18 h
[1] = target: RET (UniProt P07949)
[2] = target: RET_M918T (clone: RET_mut) (UniProt P07949)
[3] = target: RIOK1 (UniProt Q9BRS2)
[4] = target: RIPK1 (UniProt Q13546)
[5] = target: RIPK2 (UniProt O43353)
[6] = target: ROR2 (UniProt Q01974)
[7] = target: RPS6KA1 (UniProt Q15418)
[8] = target: SPHK1 (UniProt Q9NYA1)
[9] = target: SRC (UniProt P12931)
[10] = target: STK24 (UniProt Q9Y6E0)

Compound	kinase-Nluc reporter destabilization hit call [1]	kinase-Nluc reporter destabilization hit call [2]	kinase-Nluc reporter destabilization hit call [3]	kinase-Nluc reporter destabilization hit call [4]	kinase-Nluc reporter destabilization hit call [5]	kinase-Nluc reporter destabilization hit call [6]	kinase-Nluc reporter destabilization hit call [7]	kinase-Nluc reporter destabilization hit call [8]	kinase-Nluc reporter destabilization hit call [9]	kinase-Nluc reporter destabilization hit call [10]
O=C(Nc1nc2cccc(-c3ccc(CN4CCS(=O)(=O)CC4)cc3)n2n1)C1CC1 [Filgotinib] (2.5 µM)	inactive: 0	inactive: 0	inactive: 0	inactive: 0	inactive: 0	inactive: 0	inactive: 0	inactive: 0	inactive: 0	inactive: 0
CCCCNc1ncc2c(-c3ccc(CN4CCN(C)CC4)cc3)cn([C@H]3CC[C@H](O)CC3)c2n1 [UNC2025 (hydrochloride)] (2.5 µM)	inactive: 0	inactive: 0	inactive: 0	inactive: 0	inactive: 0	inactive: 0	inactive: 0	inactive: 0	inactive: 0	inactive: 0
CC[C@H](C)[C@@H]1NC(=O)[C@@H]2CCCN2C(=O)[C@@H]2CCCN2C(=O)[C@@H]2CCCN2C(=O)[C@H](CC(C)C)NC(=O)CNC(=O)CNC(=O)[C@H](Cc2ccccc2)NC1=O [Heterophyllin B] (10 µM)	inactive: 0	inactive: 0	inactive: 0	inactive: 0	inactive: 0	inactive: 0	inactive: 0	inactive: 0	inactive: 0	inactive: 0
CC(=O)Nc1nc(C)c(-c2cc3c(c(S(C)(=O)=O)c2)C(=O)N([C@@H](C)C2CC2)C3)s1 (2.5 µM)	inactive: 0	inactive: 0	inactive: 0	inactive: 0	inactive: 0	inactive: 0	inactive: 0	inactive: 0	inactive: 0	inactive: 0
Cn1cc(-c2cn3nccc3c(-c3cnn([C@]4(CC#N)C[C@@H](C#N)C4)c3)n2)cn1 (10 µM)	inactive: 0	inactive: 0	inactive: 0	inactive: 0	inactive: 0	inactive: 0	inactive: 0	inactive: 0	inactive: 0	inactive: 0
N#Cc1c[nH]c2ccc(-c3ccc(-c4c(O)cccc4O)cc3)cc12 (10 µM)	inactive: 0	inactive: 0	inactive: 0	inactive: 0	inactive: 0	inactive: 0	inactive: 0	inactive: 0	inactive: 0	inactive: 0
C[C@@H](Nc1cc(F)cc(F)c1)c1cc(C(=O)N(C)C)cc2c(=O)cc(N3CCOCC3)oc12 (10 µM)	inactive: 0	inactive: 0	inactive: 0	inactive: 0	inactive: 0	inactive: 0	inactive: 0	inactive: 0	inactive: 0	inactive: 0
CC(C)(C)S(=O)(=O)c1cc2c(Nc3ccc4scnc4c3)ccnc2cc1OCCOCCOCCOCCOCC(=O)Nc1cccc2c1CN(C1CCC(=O)NC1=O)C2=O (stereo not given) [PROTAC RIPK degrader-6] (10 µM)	inactive: 0	inactive: 0	inactive: 0	inactive: 0	active: 1	inactive: 0	inactive: 0	inactive: 0	inactive: 0	inactive: 0
CC(C)n1cnnc1-c1cccc(NC(=O)c2cc3ccc(F)cc3[nH]2)n1 (2.5 µM)	inactive: 0	inactive: 0	inactive: 0	inactive: 0	inactive: 0	inactive: 0	inactive: 0	inactive: 0	inactive: 0	inactive: 0
CCOc1cc(C(=O)N2CCC(N3CCN(C)CC3)CC2)ccc1Nc1ncc2c(n1)N(S(C)(=O)=O)c1ccccc1C(=O)N2C (10 µM)	inactive: 0	inactive: 0	inactive: 0	inactive: 0	inactive: 0	inactive: 0	inactive: 0	inactive: 0	inactive: 0	inactive: 0
COC(=O)c1cc2c(OC(C)C)cc(OC(C)C)cc2[nH]1 (2.5 µM)	inactive: 0	inactive: 0	inactive: 0	inactive: 0	inactive: 0	inactive: 0	inactive: 0	inactive: 0	inactive: 0	inactive: 0
CS(=O)(=O)N1CCc2c(-c3cnc(N)nc3)nc(N3CCOCC3)nc21 (10 µM)	inactive: 0	inactive: 0	inactive: 0	inactive: 0	inactive: 0	inactive: 0	inactive: 0	inactive: 0	inactive: 0	inactive: 0
O=C(N/N=C/c1ccc([N+](=O)[O-])o1)c1ccc(O)cc1 [Nifuroxazide] (10 µM)	inactive: 0	inactive: 0	inactive: 0	inactive: 0	inactive: 0	inactive: 0	inactive: 0	inactive: 0	inactive: 0	inactive: 0
O=S(=O)(c1cccc2c(Cl)cccc12)N1CCCNCC1 (10 µM)	inactive: 0	inactive: 0	inactive: 0	inactive: 0	inactive: 0	inactive: 0	inactive: 0	inactive: 0	inactive: 0	inactive: 0
CN(C)CCCn1cc(C2=C(c3c[nH]c4ccccc34)C(=O)NC2=O)c2ccccc21 [Bisindolylmaleimide I] (2.5 µM)	inactive: 0	inactive: 0	inactive: 0	inactive: 0	inactive: 0	inactive: 0	inactive: 0	inactive: 0	inactive: 0	inactive: 0
COc1ccc(COc2cc3oc(=O)c4cc(C(C)O)ccc4c3cc2OC)cc1 (stereo not given) [Palomid 529] (2.5 µM)	inactive: 0	inactive: 0	inactive: 0	inactive: 0	inactive: 0	inactive: 0	inactive: 0	inactive: 0	inactive: 0	inactive: 0

Individual results from the results shown:
kinase-Nluc reporter destabilization hit call [9], CC[C@H](C)[C@@H]1NC(=O)[C@@H]2CCCN2C(=O)[C@@H]2CCCN2C(=O)[C@@H]2CCCN2C(=O)[C@H](CC(C)C)NC(=O)CNC(=O)CNC(=O)[C@H](Cc2ccccc2)NC1=O [Heterophyllin B] (10 µM) is entered as inactive: 0
kinase-Nluc reporter destabilization hit call [7], CCCCNc1ncc2c(-c3ccc(CN4CCN(C)CC4)cc3)cn([C@H]3CC[C@H](O)CC3)c2n1 [UNC2025 (hydrochloride)] (2.5 µM) is entered as inactive: 0

Later entries

Compound	kinase-Nluc reporter destabilization hit call [1]	kinase-Nluc reporter destabilization hit call [2]	kinase-Nluc reporter destabilization hit call [3]	kinase-Nluc reporter destabilization hit call [4]	kinase-Nluc reporter destabilization hit call [5]	kinase-Nluc reporter destabilization hit call [6]	kinase-Nluc reporter destabilization hit call [7]	kinase-Nluc reporter destabilization hit call [8]	kinase-Nluc reporter destabilization hit call [9]	kinase-Nluc reporter destabilization hit call [10]
C=CC(=O)Nc1cc(C(=O)NC)cc(-c2n[nH]c3ccccc23)c1 (10 µM)	inactive: 0	inactive: 0	inactive: 0	inactive: 0	inactive: 0	inactive: 0	inactive: 0	inactive: 0	inactive: 0	inactive: 0
CC(C)(O)c1cc2nc(-c3cnc(N)nc3)nc(N3CCOCC3)c2s1 (2.5 µM)	inactive: 0	inactive: 0	inactive: 0	inactive: 0	inactive: 0	inactive: 0	inactive: 0	inactive: 0	inactive: 0	inactive: 0
COC(=O)[C@]1(C)CC[C@]2(C(=O)O[C@@H]3O[C@H](CO)[C@@H](O)[C@H](O)[C@H]3O)CC[C@]3(C)C(=CC[C@@H]4[C@@]5(C)C[C@H](O)[C@H](O[C@@H]6OC[C@@H](O[C@@H]7O[C@H](CO)[C@@H](O)[C@H](O)[C@H]7O)[C@H](O)[C@H]6O)[C@@](C)(CO)C5CC[C@]43C)[C@H]2C1 (stereo not given in full) [Esculentoside H] (10 µM)	inactive: 0	inactive: 0	inactive: 0	inactive: 0	inactive: 0	inactive: 0	inactive: 0	inactive: 0	inactive: 0	inactive: 0
Cc1c(C(=O)Nc2ccc(Oc3ccnc4cc(OCC(C)(C)O)ccc34)c(F)c2)c(=O)n(-c2ccccc2)n1C [Ningetinib Tosylate] (10 µM)	inactive: 0	inactive: 0	inactive: 0	inactive: 0	inactive: 0	inactive: 0	inactive: 0	inactive: 0	inactive: 0	inactive: 0
Cc1cccc(Cn2nc(C)c3c(NC(=O)c4csc5c(N)ncnc45)cccc32)n1 (10 µM)	inactive: 0	inactive: 0	inactive: 0	inactive: 0	inactive: 0	inactive: 0	inactive: 0	inactive: 0	inactive: 0	inactive: 0
COc1ccc(C(=O)c2cn(C(C)C)c3ncnc(N)c23)cc1NC(=O)Nc1ccc(Cl)cc1Cl (10 µM)	inactive: 0	inactive: 0	inactive: 0	inactive: 0	inactive: 0	inactive: 0	inactive: 0	inactive: 0	inactive: 0	inactive: 0
O=C(N=c1sccn1Cc1ccccc1)c1c[nH]c2ncccc12 (10 µM)	inactive: 0	inactive: 0	inactive: 0	inactive: 0	inactive: 0	inactive: 0	inactive: 0	inactive: 0	inactive: 0	inactive: 0
COc1c(OCCCN2CCOCC2)ccc2c3n(c(=NC(=O)c4cnc(N)nc4)nc12)CCN3 [Copanlisib (dihydrochloride)] (10 µM)	inactive: 0	inactive: 0	inactive: 0	inactive: 0	inactive: 0	inactive: 0	inactive: 0	inactive: 0	inactive: 0	inactive: 0
NC(=O)c1ccc2nc(-c3ccc(C4(N)CCC4)cc3)c(-c3ccccc3)n2n1 (10 µM)	inactive: 0	inactive: 0	inactive: 0	inactive: 0	inactive: 0	inactive: 0	inactive: 0	inactive: 0	inactive: 0	inactive: 0
O=C(Nc1cc(Cl)cc(Cl)c1)Nc1cc(Cl)cc(Cl)c1 (10 µM)	inactive: 0	inactive: 0	inactive: 0	inactive: 0	inactive: 0	inactive: 0	inactive: 0	inactive: 0	inactive: 0	inactive: 0
C=C[C@H]1[C@H](O[C@@H]2O[C@H](CO)[C@@H](O)[C@H](O)[C@H]2O)OC=C(C(=O)OC)[C@H]1CCOC(=O)c1cc(O)c(O)c(O)c1 [Cornuside] (10 µM)	inactive: 0	inactive: 0	inactive: 0	inactive: 0	inactive: 0	inactive: 0	inactive: 0	inactive: 0	inactive: 0	inactive: 0
COc1cc(/C=C/c2ccc(NC(=O)/C=C/c3cc(OC)c(OC)c(OC)c3)cc2)cc(OC)c1 (2.5 µM)	inactive: 0	inactive: 0	inactive: 0	inactive: 0	inactive: 0	inactive: 0	inactive: 0	inactive: 0	inactive: 0	inactive: 0
C=CC(=O)Nc1cccc(Oc2nc(Nc3ccc(N4CCN(C)CC4)cc3)ncc2Cl)c1 (2.5 µM)	inactive: 0	inactive: 0	inactive: 0	inactive: 0	inactive: 0	inactive: 0	inactive: 0	inactive: 0	inactive: 0	inactive: 0
O=C(O)/C=C/c1cc(Br)c(Br)c(Br)c1Br (10 µM)	inactive: 0	inactive: 0	inactive: 0	inactive: 0	inactive: 0	inactive: 0	inactive: 0	inactive: 0	inactive: 0	inactive: 0
CC(C)(C)S(=O)(=O)c1ccc2nccc(Nc3n[nH]c4ccc(F)cc34)c2c1 (10 µM)	inactive: 0	inactive: 0	inactive: 0	inactive: 0	inactive: 0	inactive: 0	inactive: 0	inactive: 0	inactive: 0	inactive: 0
CN(C)C(=O)c1cc2cnc(Nc3ccc(NC(=O)C4(C(=O)Nc5ccc(F)cc5)CC4)cc3)nc2n1C1CCCC1 (2 µM)	inactive: 0	inactive: 0	inactive: 0	inactive: 0	inactive: 0	inactive: 0	inactive: 0	inactive: 0	inactive: 0	inactive: 0
